The source of these data is the supplement of paper PMC12823440, “Inhibitors supercharge kinase turnover through native proteolytic circuits” (Nature, 2025).

Counter-ions that a name gives are not always drawn. Some of the results follow. Hit calls seldom repeat between salt and free forms of one compound.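 Kinases, fused to nanoluciferase, were expressed in K562 cells; luminescence was measured every 4 h from 2 to 18 h as percent of control (DMSO = 100%, positive control = 0%). A time point is decreased if signal falls significantly (2 sigma). Hits were called by the authors by a rule that is not shown; the count of time points alone does not decide it.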

The target in the assay is MAP2K2 (UniProt P36507). Description: number of time points (of 5) at which kinase-Nluc abundance scored as decreased, DMSO-normalised (count); higher = more persistent destabilization. The conditions noted are these: K562; 2-18 h.
In the case of `CN1CCN(c2cc(-c3ccncc3)c(-c3ccc4ccccc4c3)nn2)CC1` (10 µM), the “number of time points” value turned out to be 0.
On to `CC(O)(C#Cc1ccc2c(c1)N(c1nc(N)ncc1Cl)CC2)c1nccs1` (stereo not drawn) (2.5 µM), for which the “number of time points” value was found to be 0.
`COc1ccc(Nc2ncc(C(F)(F)F)c(NC3CC3)n2)cc1OC` (10 µM): the “number of time points” value came to 0.
As to `O=c1cc(N2CCOCC2)oc2c(-c3ccc4c(c3)OCCO4)csc12` (2.5 µM), the “number of time points” value amounted to 0.
As for `N[C@@H]1CCCN(c2c(/C=C3\SC(=O)NC3=O)cccc2-c2ccccc2)C1` (10 µM), the “number of time points” value amounted to 0.
Take `N#Cc1ccc(-c2cnc3[nH]cc(NC(=O)c4cccnc4)c3c2)cc1` (10 µM): the “number of time points” value came out at 0.
Turning to `COc1ccc(Br)cc1NC(=O)Nc1cccc2c1ccn2Cc1ccnc(N)c1` (2.5 µM), the “number of time points” value is 0.
For the molecule `COc1cc(N2CCOCC2)ccc1Nc1ncc(F)c(Nc2ccccc2NS(C)(=O)=O)n1` (10 µM), the “number of time points” value was 0.
The value for `COc1ccc(-c2cc(=O)c3c(OC)cc(OC)c(OC)c3o2)cc1` [6-Demethoxytangeretin] (10 µM) was 0; that for `COc1cc2c(cc1O)C[C@H]1c3cc(O)c(OC)cc3CC[N@@+]1(C)C2` [Phellodendrine] (10 µM) was 0.
The value for `CO[C@H]1C[C@@H]2CC[C@@H](C)[C@@](O)(O2)C(=O)C(=O)N2CCCC[C@H]2C(=O)O[C@H]([C@H](C)C[C@@H]2CC[C@@H](OC(=O)C(C)(CO)CO)[C@H](OC)C2)CC(=O)[C@H](C)/C=C(\C)[C@@H](O)[C@@H](OC)C(=O)[C@H](C)C[C@H](C)/C=C/C=C/C=C/1C` [Temsirolimus] (2.5 µM) was 0; that for `O=C(ON=C1c2ccccc2-c2nc3ccccc3nc21)c1ccco1` (2.5 µM) was 0; that for `COc1ccc(S(=O)(=O)Nc2cc(-c3c(O)ccc4ccccc34)c(O)c3ccccc23)cc1` (10 µM) was 0.
Take `Cc1cccc(COc2cccc(/C=C3\C(=O)NN(c4ccccc4)C3=O)c2)c1` (10 µM): the “number of time points” value was 0.
With `CC(C)Oc1ccc(F)c(-c2cnc(N)c(C(=O)Nc3cnccc3N3CCC[C@@H](C(=O)O)C3)n2)c1` (2 µM), the “number of time points” value is 0.
With `COc1cc(F)ccc1-c1ncnc(Nc2cccc(C[S@](C)(=N)=O)c2)n1` [Atuveciclib] (2.5 µM) the figure was 0; with `CC(C)n1ncnc1-c1cn2c(n1)-c1ccc(O[C@@H](C)C(N)=O)cc1OCC2` (10 µM), 0; with `Cn1c(CNc2cccc(C(=O)NCc3ccccc3C(F)(F)F)c2)nnc1-c1ccncc1` (10 µM), 0.
For `O=Nc1c(-c2c(O)[nH]c3cc(Br)ccc23)[nH]c2ccccc12` [GSK 3 Inhibitor IX] (2.5 µM), the “number of time points” value turned out to be 0.
As to `Nc1ncc(C(=O)NC2CN(C(=O)C3CC3)C2)c2ccc(-c3cccc(F)c3)nc12` (2 µM), the “number of time points” value was 0.
Regarding `O=C(Nc1cc(Cl)cc2c1[nH]c1cnccc12)c1cccnc1` (10 µM), the “number of time points” value was found to be 0.
In the case of `c1ccc(Cn2c(-c3ccc(OC[C@H](C4CCNCC4)n4c(-c5ccccc5)nc5ccccc54)cc3)nc3ccccc32)cc1` [Deltarasin] (2.5 µM), the “number of time points” value is 0.
`COc1cc2ncnc(Nc3cccc(I)c3)c2cc1OC` (2.5 µM): the “number of time points” value was 0.
The value for `Clc1ccc(C(c2ccc(Cl)cc2)[n+]2ccn(CC(OCc3ccc(Cl)cc3Cl)c3ccc(Cl)cc3Cl)c2)cc1` (stereo not drawn) [Calmidazolium chloride] (2.5 µM) was 0; that for `O=C(Nc1cccnc1)c1cc(-c2ccnc(F)c2)ccc1OCc1ccccc1` (10 µM) was 0.
The value for `c1nn(C2CCOCC2)cc1Nc1ncc2nnn(-c3ccc4cn[nH]c4c3)c2n1` (10 µM) was 0.
For the molecule `COC(=O)[C@H](CCSC)NC(=O)c1ccc(NC[C@@H](N)CS)cc1-c1ccccc1` [FTI-277 (hydrochloride)] (10 µM), the “number of time points” value was determined as 0.
For `Cc1cc(Nc2cc(N)ncn2)c(=O)n2c1C(=O)NC21CCCCC1` [Tomivosertib] (10 µM), the “number of time points” value is 0.
On to `CCc1c[nH]c2ncnc(N3CC[C@](N)(CNC(=O)c4ccc(F)cc4F)C3)c12` (10 µM), for which the “number of time points” value is 0.
For the molecule `Nc1ncnc2c1nc(Br)n2[C@@H]1O[C@@H]2COP(=O)(O)O[C@H]2[C@H]1O` [8-Bromo-cAMP sodium salt] (10 µM), the “number of time points” value worked out at 0.
For `CC(C)n1c(=O)n(C)c2cnc3cc(F)c(-c4ccc(OCCCN5CCCCC5)nc4)cc3c21` (10 µM), the “number of time points” value stood at 0.
Turning to `Cc1ccc(C)c(OCCn2cc(C(=O)O)c3ccccc32)c1` (10 µM), the “number of time points” value was found to be 0.
For the molecule `COCCOc1ccc2c(c1)ncn2-c1ccc2cccc(N3CCC(N)CC3)c2n1` (10 µM), the “number of time points” value stood at 0.
The value for `CC(C)=CCC/C(C)=C/CC/C(C)=C/C=C/C(C)=C/C(=O)O` [Peretinoin] (10 µM) was 0.
`C=CC(=O)N1CC[C@@H](Oc2nc(Nc3ccc(N4CCC(N5CCN(C)CC5)CC4)cc3)c(C(N)=O)nc2CC)C1` [Naquotinib (mesylate)] (2.5 µM): the “number of time points” value is 0.
For the molecule `CC(Sc1nc2c(cnn2-c2cccc(Cl)c2)c(=O)[nH]1)C(N)=O` (stereo not drawn) (10 µM), the “number of time points” value worked out at 0.
Take `Cc1cc(O)c2c(c1)C(=O)c1cccc(O)c1C2=O` [Chrysophanol] (2 µM): the “number of time points” value was 0.
In the case of `O=C1OC(/C=C/c2ccccc2)=NC/1=C\c1cccnc1` (10 µM), the “number of time points” value was 0.
